The structures appear in SMILES notation. The list shows a part of the results. Single values are uncertain, as repeats are few or missing.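 The apoptosis fraction was the count of cleaved-PARP antibody-stained nuclei relative to all DNA-stained nuclei, imaged in 1,536-well plates. Screening doses were set so most cells survived, and baseline and induced cleaved-PARP levels vary greatly across cell lines.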

Data on 25 compounds can be found in the supplement of paper PMC4604168 (melanoma cell lines).

In the first assay the test system is UACC257. Put plainly: cleaved PARP positive nuclei fraction relative to DMSO control; melanoma cells; higher = more apoptosis. The note with it: library dose: low library concentration; 72 h.
In the case of `C[C@@H](N)c1ccc(C(=O)Nc2ccnc3[nH]ccc23)cc1` + CC(C)(C)c1cnc(CSc2cnc(NC(=O)C3CCNCC3)s2)o1 [SNS-032] (first compound 0.4 µM, partner dose 0.01 µM), the “cleaved PARP positive nuclei fraction” value was found to be 210%.

Take `CC1(C)CCC(c2ccc(Cl)cc2)=C(CN2CCN(c3ccc(C(=O)NS(=O)(=O)c4ccc(N[C@H](CCN5CCOCC5)CSc5ccccc5)c(S(=O)(=O)C(F)(F)F)c4)cc3)CC2)C1` + Cc1cc(N2CCOCC2)cc2[nH]c(-c3c(NC[C@@H](O)c4cccc(Cl)c4)cc[nH]c3=O)nc12 [BMS536924] (first compound 0.4 µM, partner dose 0.2 µM): the “cleaved PARP positive nuclei fraction” value stood at 249%.

`Cn1sc(=O)n(Cc2ccccc2)c1=O` + Cc1cc([N+](=O)[O-])ccc1NS(=O)(=O)c1cc(Cl)ccc1Cl [FH535] (first compound 0.4 µM, partner dose 1 µM): the “cleaved PARP positive nuclei fraction” value came to 116%.

With `C[C@@H](N)c1ccc(C(=O)Nc2ccnc3[nH]ccc23)cc1` + Cc1cc(N2CCOCC2)cc2[nH]c(-c3c(NC[C@@H](O)c4cccc(Cl)c4)cc[nH]c3=O)nc12 [BMS536924] (first compound 0.4 µM, partner dose 0.2 µM), the “cleaved PARP positive nuclei fraction” value came out at 280%.

For `CCCCCCCCc1ccc(CCC(N)(CO)CO)cc1` [fingolimod] + C=CCn1c(=O)c2cnc(Nc3ccc(N4CCN(C)CC4)cc3)nc2n1-c1cccc(C(C)(C)O)n1 [MK1775] (first compound 2 µM, partner dose 0.02 µM), the “cleaved PARP positive nuclei fraction” value amounted to 36.2%.

As for `CC(=O)O[C@@]12CO[C@@H]1C[C@H](O)[C@@]1(C)C(=O)[C@H](O)C3=C(C)[C@@H](OC(=O)[C@H](O)[C@@H](NC(=O)OC(C)(C)C)c4ccccc4)C[C@@](O)([C@@H](OC(=O)c4ccccc4)[C@H]21)C3(C)C` [Docetaxel] + CCc1ccc(CCOc2ccc(CC3SC(=O)NC3=O)cc2)nc1 [pioglitazone] (first compound 0.0001 µM, partner dose 2 µM), the “cleaved PARP positive nuclei fraction” value worked out at 202%.

Consider `NC1(c2ccc(-c3nc4ccn5c(=O)[nH]nc5c4cc3-c3ccccc3)cc2)CCC1` + c1cc(-c2cnn3cc(-c4ccc(OCCN5CCCCC5)cc4)cnc23)ccn1 [Dorsomorphin] (first compound 0.4 µM, partner dose 0.4 µM), for which the “cleaved PARP positive nuclei fraction” value was 95.6%.

`C[C@]1(O)C[C@@H](c2nc(-c3ccc4ccc(-c5ccccc5)nc4c3)c3c(N)nccn32)C1` + C=CCn1c(=O)c2cnc(Nc3ccc(N4CCN(C)CC4)cc3)nc2n1-c1cccc(C(C)(C)O)n1 [MK1775] (first compound 0.4 µM, partner dose 0.02 µM): the “cleaved PARP positive nuclei fraction” value was determined as 40.2%.

As for `CN(c1ncccc1CNc1nc(Nc2ccc3c(c2)CC(=O)N3)ncc1C(F)(F)F)S(C)(=O)=O` + Oc1cc(-c2nc(-c3ccccc3)[nH]c2-c2ccncc2)ccc1Cl [L779450] (first compound 0.08 µM, partner dose 0.2 µM), the “cleaved PARP positive nuclei fraction” value came to 270%.

As for `CCCCCCCCc1ccc(CCC(N)(CO)CO)cc1` [fingolimod] + c1cc(-c2cnn3cc(-c4ccc(OCCN5CCCCC5)cc4)cnc23)ccn1 [Dorsomorphin] (first compound 2 µM, partner dose 0.4 µM), the “cleaved PARP positive nuclei fraction” value worked out at 165%.

Take `CC(=O)O[C@@]12CO[C@@H]1C[C@H](O)[C@@]1(C)C(=O)[C@H](O)C3=C(C)[C@@H](OC(=O)[C@H](O)[C@@H](NC(=O)OC(C)(C)C)c4ccccc4)C[C@@](O)([C@@H](OC(=O)c4ccccc4)[C@H]21)C3(C)C` [Docetaxel] + COc1cc(Nc2ncc(F)c(Nc3ccc4c(n3)NC(=O)C(C)(C)O4)n2)cc(OC)c1OC [Tamatinib] (first compound 0.0001 µM, partner dose 0.4 µM): the “cleaved PARP positive nuclei fraction” value turned out to be 492%.

With `CS(=O)(=O)c1ccc(C(=O)Nc2ccc(Cl)c(-c3ccccn3)c2)c(Cl)c1` [vismodegib] + CC1(C)NC(=O)N(c2ccc([N+](=O)[O-])c(C(F)(F)F)c2)C1=O [nilutamide] (first compound 1 µM, partner dose 1 µM), the “cleaved PARP positive nuclei fraction” value was found to be 113%.

The next assay deals with UACC62. The assay is described as above. Conditions: library dose: low library concentration; 72 h.
Consider `NC1(c2ccc(-c3nc4ccn5c(=O)[nH]nc5c4cc3-c3ccccc3)cc2)CCC1` + Cc1nc(Nc2ncc(C(=O)Nc3c(C)cccc3Cl)s2)cc(N2CCN(CCO)CC2)n1 [dasatanib] (first compound 0.4 µM, partner dose 0.004 µM), for which the “cleaved PARP positive nuclei fraction” value worked out at 194%.

Turning to `C[C@@H](N)c1ccc(C(=O)Nc2ccnc3[nH]ccc23)cc1` + CC(C)(C)c1cnc(CSc2cnc(NC(=O)C3CCNCC3)s2)o1 [SNS-032] (first compound 0.4 µM, partner dose 0.01 µM), the “cleaved PARP positive nuclei fraction” value came out at 210%.

As to `NC(=O)c1ccc(N(C(N)=O)c2c(F)cccc2F)nc1-c1ccc(F)cc1F` + CN1CCN(c2ccc3nc(-c4c(N)c5c(F)cccc5[nH]c4=O)[nH]c3c2)CC1 [Dovitinib] (first compound 0.4 µM, partner dose 0.1 µM), the “cleaved PARP positive nuclei fraction” value came out at 166%.

In the case of `NC(=O)c1ccc(N(C(N)=O)c2c(F)cccc2F)nc1-c1ccc(F)cc1F` + C[C@]1(O)C[C@@H](c2nc(-c3ccc4ccc(-c5ccccc5)nc4c3)c3c(N)nccn32)C1 [OSI906] (first compound 0.4 µM, partner dose 0.4 µM), the “cleaved PARP positive nuclei fraction” value is 111%.

For `Cn1cnc2c(F)c(Nc3ccc(Br)cc3Cl)c(C(=O)NOCCO)cc21` [selumetinib] + Cn1nnc2c(C(N)=O)ncn2c1=O [temozolomide] (first compound 0.015 µM, partner dose 2 µM), the “cleaved PARP positive nuclei fraction” value was 292%.

`C[C@]1(O)C[C@@H](c2nc(-c3ccc4ccc(-c5ccccc5)nc4c3)c3c(N)nccn32)C1` + Clc1ccc(Nc2nnc(Cc3ccncc3)c3ccccc23)cc1 [vatalanib] (first compound 0.4 µM, partner dose 2 µM): the “cleaved PARP positive nuclei fraction” value is 34.3%.

As to `CC1(C)CCC(c2ccc(Cl)cc2)=C(CN2CCN(c3ccc(C(=O)NS(=O)(=O)c4ccc(N[C@H](CCN5CCOCC5)CSc5ccccc5)c(S(=O)(=O)C(F)(F)F)c4)cc3)CC2)C1` + Cc1cc(N2CCOCC2)cc2[nH]c(-c3c(NC[C@@H](O)c4cccc(Cl)c4)cc[nH]c3=O)nc12 [BMS536924] (first compound 0.4 µM, partner dose 0.2 µM), the “cleaved PARP positive nuclei fraction” value stood at 13.5%.

As for `CC(=O)O[C@@]12CO[C@@H]1C[C@H](O)[C@@]1(C)C(=O)[C@H](O)C3=C(C)[C@@H](OC(=O)[C@H](O)[C@@H](NC(=O)OC(C)(C)C)c4ccccc4)C[C@@](O)([C@@H](OC(=O)c4ccccc4)[C@H]21)C3(C)C` [Docetaxel] + COCC[n+]1c2c(n(Cc3cnccn3)c1C)C(=O)c1ccccc1C2=O [YM155] (first compound 0.0001 µM, partner dose 0.0004 µM), the “cleaved PARP positive nuclei fraction” value came to 857%.

Turning to `NC1(c2ccc(-c3nc4ccn5c(=O)[nH]nc5c4cc3-c3ccccc3)cc2)CCC1` + CC(=O)c1c(C)c2cnc(Nc3ccc(N4CCNCC4)cn3)nc2n(C2CCCC2)c1=O [palbociclib] (first compound 0.4 µM, partner dose 0.04 µM), the “cleaved PARP positive nuclei fraction” value turned out to be 352%.

As for `Cn1sc(=O)n(Cc2ccccc2)c1=O` + Cc1cc([N+](=O)[O-])ccc1NS(=O)(=O)c1cc(Cl)ccc1Cl [FH535] (first compound 0.4 µM, partner dose 1 µM), the “cleaved PARP positive nuclei fraction” value was determined as 177%.

In the case of `CN(c1ncccc1CNc1nc(Nc2ccc3c(c2)CC(=O)N3)ncc1C(F)(F)F)S(C)(=O)=O` + Nc1cccc2c1CN(C1CCC(=O)NC1=O)C2=O [lenalidomide] (first compound 0.08 µM, partner dose 1 µM), the “cleaved PARP positive nuclei fraction” value worked out at 97.1%.

For the compound `NC(=O)c1ccc(N(C(N)=O)c2c(F)cccc2F)nc1-c1ccc(F)cc1F` + C[C@]1(c2nc3c(C(N)=O)cccc3[nH]2)CCCN1 [Veliparib] (first compound 0.4 µM, partner dose 1.4 µM), the “cleaved PARP positive nuclei fraction” value worked out at 139%.

Regarding `CCCCCCCCc1ccc(CCC(N)(CO)CO)cc1` [fingolimod] + O=C(O)c1ccc2c(c1)nc(Nc1cccc(Cl)c1)c1ccncc12 [CX4945] (first compound 2 µM, partner dose 0.4 µM), the “cleaved PARP positive nuclei fraction” value is 248%.

`C[C@@H](N)c1ccc(C(=O)Nc2ccnc3[nH]ccc23)cc1` + Cc1cc(N2CCOCC2)cc2[nH]c(-c3c(NC[C@@H](O)c4cccc(Cl)c4)cc[nH]c3=O)nc12 [BMS536924] (first compound 0.4 µM, partner dose 0.2 µM): the “cleaved PARP positive nuclei fraction” value stood at 139%.

Consider `CCCCCCCCc1ccc(CCC(N)(CO)CO)cc1` [fingolimod] + C=CCn1c(=O)c2cnc(Nc3ccc(N4CCN(C)CC4)cc3)nc2n1-c1cccc(C(C)(C)O)n1 [MK1775] (first compound 2 µM, partner dose 0.02 µM), for which the “cleaved PARP positive nuclei fraction” value is 146%.

As for `CN(c1ncccc1CNc1nc(Nc2ccc3c(c2)CC(=O)N3)ncc1C(F)(F)F)S(C)(=O)=O` + Nc1nc(F)nc2c1ncn2[C@@H]1O[C@H](CO)[C@@H](O)[C@@H]1O [fludarabine] (first compound 0.08 µM, partner dose 0.2 µM), the “cleaved PARP positive nuclei fraction” value was found to be 372%.

As for `C[C@@H](N)c1ccc(C(=O)Nc2ccnc3[nH]ccc23)cc1` + CS(=O)(=O)CCNCc1ccc(-c2ccc3ncnc(Nc4ccc(OCc5cccc(F)c5)c(Cl)c4)c3c2)o1 [lapatinib] (first compound 0.4 µM, partner dose 0.8 µM), the “cleaved PARP positive nuclei fraction” value was found to be 254%.

Consider `NC(=O)c1ccc(N(C(N)=O)c2c(F)cccc2F)nc1-c1ccc(F)cc1F` + CS(=O)(=O)CCNCc1ccc(-c2ccc3ncnc(Nc4ccc(OCc5cccc(F)c5)c(Cl)c4)c3c2)o1 [lapatinib] (first compound 0.4 µM, partner dose 0.8 µM), for which the “cleaved PARP positive nuclei fraction” value stood at 209%.
